Results taken from article PMC11024517.

Target: T1, 53BP1 (immunoprecipitates of unstressed cells), Q12888
T1 chain: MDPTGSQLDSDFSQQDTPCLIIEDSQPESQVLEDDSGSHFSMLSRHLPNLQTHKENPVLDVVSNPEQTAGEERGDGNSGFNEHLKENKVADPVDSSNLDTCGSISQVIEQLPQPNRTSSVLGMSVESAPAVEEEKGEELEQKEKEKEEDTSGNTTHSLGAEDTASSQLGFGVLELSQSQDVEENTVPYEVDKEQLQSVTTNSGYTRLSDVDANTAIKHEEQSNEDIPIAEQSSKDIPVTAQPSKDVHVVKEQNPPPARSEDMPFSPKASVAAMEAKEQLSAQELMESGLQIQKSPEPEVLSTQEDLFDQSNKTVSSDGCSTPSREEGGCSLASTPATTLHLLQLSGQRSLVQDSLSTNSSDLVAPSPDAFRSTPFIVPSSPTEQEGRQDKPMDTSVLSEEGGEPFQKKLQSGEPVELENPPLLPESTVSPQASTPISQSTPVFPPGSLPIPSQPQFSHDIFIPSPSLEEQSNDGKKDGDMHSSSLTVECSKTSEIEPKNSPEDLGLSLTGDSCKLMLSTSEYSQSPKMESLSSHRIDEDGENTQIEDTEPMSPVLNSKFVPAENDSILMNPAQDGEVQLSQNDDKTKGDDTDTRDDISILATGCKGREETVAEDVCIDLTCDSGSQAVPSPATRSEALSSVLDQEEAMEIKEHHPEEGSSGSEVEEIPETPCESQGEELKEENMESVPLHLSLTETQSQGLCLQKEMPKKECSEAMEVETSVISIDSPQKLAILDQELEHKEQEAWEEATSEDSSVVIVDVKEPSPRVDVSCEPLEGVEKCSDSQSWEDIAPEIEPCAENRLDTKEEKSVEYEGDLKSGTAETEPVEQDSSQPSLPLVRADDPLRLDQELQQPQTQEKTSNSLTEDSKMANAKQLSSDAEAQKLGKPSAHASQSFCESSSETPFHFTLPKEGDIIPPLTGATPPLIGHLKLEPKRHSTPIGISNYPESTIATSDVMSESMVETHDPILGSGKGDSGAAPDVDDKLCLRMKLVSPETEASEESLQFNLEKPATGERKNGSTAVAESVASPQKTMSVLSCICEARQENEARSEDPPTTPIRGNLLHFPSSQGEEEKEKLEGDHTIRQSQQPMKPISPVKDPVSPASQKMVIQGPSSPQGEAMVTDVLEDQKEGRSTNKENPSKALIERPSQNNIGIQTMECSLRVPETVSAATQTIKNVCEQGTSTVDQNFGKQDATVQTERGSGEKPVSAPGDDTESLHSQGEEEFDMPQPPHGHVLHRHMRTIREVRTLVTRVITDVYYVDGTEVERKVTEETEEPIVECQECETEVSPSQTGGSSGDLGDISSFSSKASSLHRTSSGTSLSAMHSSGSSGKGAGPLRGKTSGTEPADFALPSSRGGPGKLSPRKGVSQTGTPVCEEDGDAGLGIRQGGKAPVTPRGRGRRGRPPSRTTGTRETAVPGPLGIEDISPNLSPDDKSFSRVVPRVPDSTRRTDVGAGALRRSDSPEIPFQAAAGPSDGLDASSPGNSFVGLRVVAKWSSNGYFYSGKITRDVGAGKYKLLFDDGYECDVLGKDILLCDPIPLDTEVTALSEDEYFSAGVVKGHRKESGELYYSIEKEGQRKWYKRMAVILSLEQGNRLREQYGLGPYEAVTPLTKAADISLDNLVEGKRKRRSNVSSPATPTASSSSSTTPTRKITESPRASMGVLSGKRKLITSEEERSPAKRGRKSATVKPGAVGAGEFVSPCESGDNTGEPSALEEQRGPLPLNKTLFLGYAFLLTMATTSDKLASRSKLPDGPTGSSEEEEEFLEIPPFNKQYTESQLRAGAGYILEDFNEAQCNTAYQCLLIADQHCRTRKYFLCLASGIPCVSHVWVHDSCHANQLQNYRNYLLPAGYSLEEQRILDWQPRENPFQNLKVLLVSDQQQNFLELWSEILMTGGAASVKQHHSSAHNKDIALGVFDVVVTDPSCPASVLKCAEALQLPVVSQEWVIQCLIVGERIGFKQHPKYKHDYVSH
Experiment: affinity purification with mass spectrometry; USP28 and 53BP1 immunoprecipitates from unstressed cells, SDS-PAGE, in-gel digestion, LC-MS/MS
Details: remark: other sources report otherwise

B1: USP28 (immunoprecipitates of unstressed cells), Q96RU2 1-1077 (enzyme)
chain: MTAELQQDDAAGAADGHGSSCQMLLNQLREITGIQDPSFLHEALKASNGDITQAVSLLTDERVKEPSQDTVATEPSEVEGSAANKEVLAKVIDLTHDNKDDLQAAIALSLLESPKIQADGRDLNRMHEATSAETKRSKRKRCEVWGENPNPNDWRRVDGWPVGLKNVGNTCWFSAVIQSLFQLPEFRRLVLSYSLPQNVLENCRSHTEKRNIMFMQELQYLFALMMGSNRKFVDPSAALDLLKGAFRSSEEQQQDVSEFTHKLLDWLEDAFQLAVNVNSPRNKSENPMVQLFYGTFLTEGVREGKPFCNNETFGQYPLQVNGYRNLDECLEGAMVEGDVELLPSDHSVKYGQERWFTKLPPVLTFELSRFEFNQSLGQPEKIHNKLEFPQIIYMDRYMYRSKELIRNKRECIRKLKEEIKILQQKLERYVKYGSGPARFPLPDMLKYVIEFASTKPASESCPPESDTHMTLPLSSVHCSVSDQTSKESTSTESSSQDVESTFSSPEDSLPKSKPLTSSRSSMEMPSQPAPRTVTDEEINFVKTCLQRWRSEIEQDIQDLKTCIASTTQTIEQMYCDPLLRQVPYRLHAVLVHEGQANAGHYWAYIYNQPRQSWLKYNDISVTESSWEEVERDSYGGLRNVSAYCLMYINDKLPYFNAEAAPTESDQMSEVEALSVELKHYIQEDNWRFEQEVEEWEEEQSCKIPQMESSTNSSSQDYSTSQEPSVASSHGVRCLSSEHAVIVKEQTAQAIANTARAYEKSGVEAALSEVMLSPAMQGVILAIAKARQTFDRDGSEAGLIKAFHEEYSRLYQLAKETPTSHSDPRLQHVLVYFFQNEAPKRVVERTLLEQFADKNLSYDERSISIMKVAQAKLKEIGPDDMNMEEYKKWHEDYSLFRKVSVYLLTGLELYQKGKYQEALSYLVYAYQSNAALLMKGPRRGVKESVIALYRRKCLLELNAKAASLFETNDDHSVTEGINVMNELIIPCIHLIINNDISKDDLDAIEVMRNHWCSYLGQDIAENLQLCLGEFLPRLLDPSAEIIVLKEPPTIRPNSPYDLCSRFAAVMESIQGVSTVTVK
With B1 the binding was “binds”.

These are yes or no findings as the source states them, for the method shown. In cells and extracts the contact can be indirect. Here binding means that the protein was enriched with, or labelled near, the bait; the list need not be complete.
